Assay results: article PMC9166791
No constants are given. Whether binding was seen depends on the method and setting. Binding seen in cells or lysates may run through a third protein. Binding calls can cover weak binding; strength is not graded here.

The chains behind the UniProt entries cited, without tags or fusion partners. Where a name states a change or a piece, a line headed by the entry shows the natural chain unless it says otherwise.
UniProt Q9ES97: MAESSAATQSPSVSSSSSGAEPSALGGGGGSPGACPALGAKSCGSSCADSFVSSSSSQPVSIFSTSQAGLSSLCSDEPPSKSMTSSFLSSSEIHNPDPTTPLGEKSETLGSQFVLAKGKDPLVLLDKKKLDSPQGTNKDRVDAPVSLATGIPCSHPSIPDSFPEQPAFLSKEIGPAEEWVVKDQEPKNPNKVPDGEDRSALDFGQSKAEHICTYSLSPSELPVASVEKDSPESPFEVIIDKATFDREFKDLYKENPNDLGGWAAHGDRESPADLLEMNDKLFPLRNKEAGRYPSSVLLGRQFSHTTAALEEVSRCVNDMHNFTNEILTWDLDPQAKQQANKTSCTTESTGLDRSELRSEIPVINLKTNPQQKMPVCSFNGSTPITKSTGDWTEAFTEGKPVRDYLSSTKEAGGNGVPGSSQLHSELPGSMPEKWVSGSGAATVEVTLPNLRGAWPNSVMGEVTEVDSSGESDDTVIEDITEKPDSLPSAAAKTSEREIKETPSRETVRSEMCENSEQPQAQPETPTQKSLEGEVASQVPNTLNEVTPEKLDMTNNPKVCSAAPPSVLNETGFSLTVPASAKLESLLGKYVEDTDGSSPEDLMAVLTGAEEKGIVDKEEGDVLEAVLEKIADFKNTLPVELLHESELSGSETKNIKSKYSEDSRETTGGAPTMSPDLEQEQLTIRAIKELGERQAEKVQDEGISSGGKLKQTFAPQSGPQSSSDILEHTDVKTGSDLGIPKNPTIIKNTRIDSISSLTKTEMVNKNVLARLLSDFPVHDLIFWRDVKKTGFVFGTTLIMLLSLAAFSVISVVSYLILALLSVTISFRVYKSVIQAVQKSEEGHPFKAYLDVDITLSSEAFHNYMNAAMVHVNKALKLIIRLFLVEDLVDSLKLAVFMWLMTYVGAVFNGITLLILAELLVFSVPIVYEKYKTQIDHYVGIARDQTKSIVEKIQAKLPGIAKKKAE

Biological target: Reticulon 3 (RTN3) (mouse (endogenous in renal tubular epithelial cells of WT mice)) (UniProt Q9ES97)
Assay: co-IP; endogenous proteins; lysates (500 ug in 1 mL) immunoprecipitated with Protein A + G beads overnight, Western blot; legend: mouse renal tubular epithelial cells, methods: kidney tissues of WT mice

binding: binds
B1: GC-Rich Promoter Binding Protein 1 (GPBP1) (protein, UniProt Q6NXH3 1-473)
chain: MAQHDFAPAWLNFPTPPSSTKSSLNFEKHSENFSWTENRYDVSRRRHNSSDGFDSGIGRPNGGNFGRKEKNGWRTHGRNGTENINHRGGYHGGNSRSRSSIFHSGKSQGLHENSIPDNETGRKEDKRERRQFEAEDFPSLNPEYEREPNQNKSLAAGVWDYPPNPKSRTPRMLVIKKGNTKDLQLSGFPVAGNLQSQPVKNGTGPSVYKGLVPKPAVPPTKPTQWKSQTKENKVGTSFSHESTYGVGNFNTFKSTAKNISPSTNSVKECNRSNSSSPVDKLNQQPRLTKLTRMRSDKKSEFLKALKRDRVEEEHEDESHAGSEKDDDSFNLHNSNTTHQERDINRNFDENEIPQENGNASMISQQIIRSSTFPQTDVLSSSLEAEHRLLKEMGWQEDSENDETCAPLTEDEMREFQVISEQLQKNGLRKNGILKNGLICDFKFGPWKNSTFKPTIENDDTETSSSDTSDDDDV
